# From PubChem BioAssay AID1469 (National Center for Advancing Translational Sciences (NCATS), 2008)
# Chains of the proteins cited; added tags and fusions are not shown.
# UniProt P10828, whole entry: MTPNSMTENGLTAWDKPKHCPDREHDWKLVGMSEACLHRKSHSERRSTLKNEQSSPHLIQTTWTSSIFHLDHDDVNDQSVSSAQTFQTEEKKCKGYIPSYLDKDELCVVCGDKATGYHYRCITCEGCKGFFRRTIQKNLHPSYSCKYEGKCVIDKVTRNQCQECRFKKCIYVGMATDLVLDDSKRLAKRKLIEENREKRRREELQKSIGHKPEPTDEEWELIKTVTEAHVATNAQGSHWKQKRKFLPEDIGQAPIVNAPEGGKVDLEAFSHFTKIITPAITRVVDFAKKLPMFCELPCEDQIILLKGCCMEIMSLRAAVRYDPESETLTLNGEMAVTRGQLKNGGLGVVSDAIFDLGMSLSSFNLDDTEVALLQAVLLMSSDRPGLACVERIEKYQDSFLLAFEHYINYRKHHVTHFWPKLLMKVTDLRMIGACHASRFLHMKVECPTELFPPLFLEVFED
# About 180 (0.064%) of roughly 280,000 compounds were called active. These results got no clear call from the source, so the numbers are uncertain. Calls follow the shape of the dose curve; as a rule, active = well fitted inhibition curve with a large enough effect; inconclusive = small, poorly fitted or top-dose-only effect, or effect the other way; inactive = flat fitted curve, though single readings scatter.
# Target: Thyroid hormone receptor beta (Homo sapiens) (UniProt P10828)
# Test: qHTS for Inhibitors of the Interaction of Thyroid Hormone Receptor and Steroid Receptor Coregulator 2; also: nearly all actives have a fitted effect of over 50% in size
# Conditions: TRbeta-SRC2 peptide binding, fluorescence polarization; receptor liganded with 1 µM T3
# Description: NIH Molecular Libraries Probe Production Network [MLPCN]
# NIH Chemical Genomics Center [NCGC]
# Assay Provider: R. Kip Guy, St. Jude Children's Research Hospital
# Thyroid receptor (TR) regulates many homeostatic processes including basal metabolism, cardiovascular function, body weight, and lipid trafficking. TR modulators are potential therapeutics for obesity and hyperlipidemias but current thyroid analogs have undesirable side effects, particularly cardiac stimulation. To identify inhibitors that specifically prevent the interaction of TR with the steroid receptor coregulator 2 (SRC2), a fluorescence polarization assay was screened. This assay detects interaction of the ligand-binding domain of human TRb with a Texas Red labeled SRC2 peptide, corresponding to a 20 amino acid region of the nuclear receptor interaction domain (Arnold et al., 2006). Small molecule inhibitors that block the interaction of TR and SRC2 are detected by a decrease in fluorescence polarization.
# Arnold, L. A.; Estebanez-Perpina, E.; Togashi, M.; Shelat, A.; Ocasio, C. A.; McReynolds, A. C.; Nguyen, P.; Baxter, J. D.; Fletterick, R. J.; Webb, P.; Guy, R. K. A high-throughput screening method to identify small molecule inhibitors of thyroid hormone receptor coactivator binding. […]
# Keywords: NIH Roadmap, MLPCN, MLI, MLSMR, qHTS, NCGC, qHTS, thyroid hormone receptor, steroid receptor coactivator, fluorescence polarization
# Potency is read from the fitted curve at half-maximal effect.
row,SMILES,Potency
1,Cc1ccc(OCC(C)C)c(CN(CCCl)CCCl)c1,inconclusive: 56.2 µM
